Taken from: PubChem BioAssay AID504804 (Drosophila RNAi Screening Center, 2011)
Assay: 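dsRNAs that improve Kc cell survival under doxorubicin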 (primary screen). System: Drosophila Kc cells. Reagent: long dsRNA against Drosophila genes, 0.5 µg dsRNA per well. Time to read-out: 96 h (48 h knock-down, then 48 h drug). Treatment: doxorubicin 5 µg/ml for 48 h, added 48 h after dsRNA. Read-out: 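Luminescent ATP counts per replicate, not normalised, reflecting viable cells after 48 h dsRNA knock-down followed by 48 h of 5 µg/ml doxorubicin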. Scale: raw ATP luminescence: higher = more viable cells, protection from doxorubicin. Call rule: 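z-score of 2 or more over plate mean in both duplicates, retained only when retests and separate dsRNAs confirm the protection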.
The deposit covers about 19,000 reagents; this is an unselected part of those that have a named target and a result. Over the whole deposit, 47 (0.25%) got an active call. 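Signals are raw, not normalised; exact z-scores behind calls not deposited; actives needed confirmation, so some wells reaching 2 SD are inactive.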 Unmarked entries are inactive. A plus sign joins genes that one reagent is predicted to hit.

SD above plate mean | raw ATP luminescence, replicate 1 | raw ATP luminescence, replicate 2 | target | DRSC id
– | 61490 | 53757 | dpr4 (defective proboscis extension response 4) | DRSC14531
– | 60383 | 61070 | dpr4 (defective proboscis extension response 4) | DRSC14929
– | 43480 | 75270 | CG15478 | DRSC18057
– | 77687 | 56920 | rt (rotated abdomen) | DRSC11391
– | 52060 | 57610 | CG3603 | DRSC18317
– | 1.41e5 | 1.71e5 | ghi (ghiberti) | DRSC08985
– | 72180 | 46430 | SCAP (SREBP cleavage activating protein) | DRSC04869
– | 62343 | 61973 | SCAP (SREBP cleavage activating protein) | DRSC04907
– | 64260 | 50993 | Scm (Sex comb on midleg) | DRSC16853
– | 92747 | 99407 | Ldh (Lactate dehydrogenase) | DRSC11198
– | 80760 | 85683 | CG10948 | DRSC09806
– | 1.29e5 | 87463 | CG7742 | DRSC03066
– | 2.12e5 | 1.93e5 | can (cannonball) | DRSC10664
– | 56237 | 50027 | CG15278 | DRSC02481
– | 1.14e5 | 52937 | CG5439 | DRSC02861
– | 72120 | 64643 | ChLD3 (Chitin and LDLR binding deacetylase 3) | DRSC02640
– | 46053 | 85403 | BtbVII (BTB-protein-VII) | DRSC08415
– | 47363 | 75653 | Gr47a (Gustatory receptor 47a) | DRSC06221
– | 53977 | 47133 | stil (stand still) | DRSC07699
– | 2.45e5 | 2.57e5 | CG32855 | DRSC13131
– | 50657 | 45323 | Smyd4-1 (SET and MYND domain containing, class 4, member 1) | DRSC06785
– | 42813 | 56227 | hlk (hulk) | DRSC05021
– | 51013 | 57060 | hlk (hulk) | DRSC05022
– | 37460 | 44700 | CROT (Carnitine O-octanoyltransferase) | DRSC14519
– | 3.41e5 | 3.55e5 | Or19a (Odorant receptor 19a) | DRSC20684
– | 31723 | 28090 | Rich (RIC1 homolog) | DRSC11607
– | 58510 | 64760 | NfI (Nuclear factor I) | DRSC17158
– | 75000 | 83247 | CG32022 | DRSC09678
– | 51880 | 77037 | CG3829 | DRSC04423
– | 1.24e5 | 85453 | CG8814 | DRSC00707
– | 39130 | 51030 | CG15930 | DRSC18107
– | 2.93e5 | 2.76e5 | Gs2 (Glutamine synthetase 2) | DRSC20250
– | 51810 | 61300 | Vha68-3 (Vacuolar H[+] ATPase 68kD subunit 3) | DRSC02809
– | 48527 | 32967 | Nthl1 (Nth-like DNA glycosylase 1) | DRSC03183
– | 78747 | 56393 | Nlg1 (Neuroligin 1) | DRSC12485
– | 68870 | 56810 | Nlg1 (Neuroligin 1) | DRSC12532
– | 67857 | 59290 | Nlg1 (Neuroligin 1) | DRSC12533
– | 67963 | 63363 | Nlg1 (Neuroligin 1) | DRSC12539
– | 1.39e5 | 1.67e5 | CG31224 | DRSC15272
– | 55020 | 50953 | CG31224 | DRSC16290
– | 61330 | 51140 | CG13856 | DRSC14706
– | 85467 | 44293 | Coop (Corepressor of Pangolin) | DRSC06604
– | 70253 | 62117 | CG17567 (retired record) | DRSC02627
– | 1.69e5 | 1.59e5 | CG42355 | DRSC07967
– | 38270 | 69417 | Vha100-5 (Vacuolar H[+] ATPase 100kD subunit 5) | DRSC02175
– | 52960 | 44090 | CG6503 | DRSC16056
– | 57230 | 50847 | SiaT (Sialyltransferase) | DRSC04494
– | 2.51e5 | 2.40e5 | CrebB (Cyclic-AMP response element binding protein B) | DRSC20232
– | 82567 | 61510 | CG13562 | DRSC04200
– | 46417 | 81277 | lft (lowfat) | DRSC02236
– | 85030 | 66230 | CG12983 | DRSC11692
– | 79617 | 64910 | Rap2l (Ras-associated protein 2-like) | DRSC04646
– | 72773 | 76947 | saturn | DRSC09303
– | 51337 | 60023 | CG9304 | DRSC04538
– | 42520 | 86530 | Cka (Connector of kinase to AP-1) | DRSC03476
– | 1.01e5 | 82507 | CG10702 | DRSC02097
– | 3.30e5 | 3.07e5 | HP1D3csd (Heterochromatin Protein 1D3 chromoshadow domain) | DRSC19548
– | 40163 | 37577 | CG5235 | DRSC10494
– | 91660 | 66710 | ex (expanded) | DRSC00817
– | 83037 | 73093 | Mgat4a | DRSC09326
– | 90857 | 64100 | Mgat4a | DRSC11070
– | 1.58e5 | 1.83e5 | ENGase (Endo-beta-N-acetylglucosaminidase) | DRSC19952
– | 1.86e5 | 1.92e5 | ENGase (Endo-beta-N-acetylglucosaminidase) | DRSC19953
– | 82003 | 48340 | CG33270 | DRSC10584
– | 36950 | 53170 | Traf6 (TNF-receptor-associated factor 6) | DRSC18725
– | 78500 | 73650 | CG5292 | DRSC15763
– | 1.46e5 | 1.60e5 | wgn (wengen) | DRSC19998
– | 63680 | 65577 | dgt3 (dim gamma-tubulin 3) | DRSC04349
– | 65620 | 72183 | osi (orsai) | DRSC02931
– | 69830 | 55540 | Pbp45 (PSEA-binding protein 45kD) | DRSC16509
– | 51240 | 58850 | CG2854 | DRSC18595
– | 58680 | 56540 | CG42827 + CG42828 | DRSC16116
– | 60697 | 19697 | CG1965 | DRSC12577
– | 67687 | 82033 | vir-1 (virus-induced RNA 1) | DRSC02501
– | 58883 | 74453 | vir-1 (virus-induced RNA 1) | DRSC02863
– | 69793 | 49927 | cN-IIIB (cytosolic 5'-nucleotidase IIIB) | DRSC04359
– | 73593 | 73557 | CG8252 | DRSC07126
– | 67140 | 51920 | CG15517 | DRSC15056
– | 1.49e5 | 1.73e5 | CG7546 | DRSC08885
– | 37573 | 33197 | CG7546 | DRSC10871
– | 39640 | 32737 | CG9040 | DRSC11053
2 to 3 SD above plate mean | 2.20e5 | 2.15e5 | vg (vestigial) | DRSC07715
– | 35320 | 40410 | otu (ovarian tumor) | DRSC18811
– | 21403 | 22387 | Phf5a (PHD finger protein 5a) | DRSC03261
